The supplement of paper PMC10849652
The other results are listed elsewhere or left out.

The chains behind the UniProt entries cited, without tags or fusion partners. Where a name states a change or a piece, a line headed by the entry shows the natural chain unless it says otherwise.
UniProt Q6ZV70: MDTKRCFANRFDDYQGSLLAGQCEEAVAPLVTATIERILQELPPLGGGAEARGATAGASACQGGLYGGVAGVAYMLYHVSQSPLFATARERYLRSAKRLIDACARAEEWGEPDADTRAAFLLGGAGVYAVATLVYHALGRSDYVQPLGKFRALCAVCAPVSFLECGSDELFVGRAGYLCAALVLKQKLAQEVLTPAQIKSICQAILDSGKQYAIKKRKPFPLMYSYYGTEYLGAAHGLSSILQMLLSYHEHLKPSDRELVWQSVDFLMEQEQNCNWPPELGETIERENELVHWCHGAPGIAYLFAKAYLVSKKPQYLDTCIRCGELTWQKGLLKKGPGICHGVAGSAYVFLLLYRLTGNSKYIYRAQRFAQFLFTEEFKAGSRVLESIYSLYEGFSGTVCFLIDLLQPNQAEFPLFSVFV
UniProt Q13094: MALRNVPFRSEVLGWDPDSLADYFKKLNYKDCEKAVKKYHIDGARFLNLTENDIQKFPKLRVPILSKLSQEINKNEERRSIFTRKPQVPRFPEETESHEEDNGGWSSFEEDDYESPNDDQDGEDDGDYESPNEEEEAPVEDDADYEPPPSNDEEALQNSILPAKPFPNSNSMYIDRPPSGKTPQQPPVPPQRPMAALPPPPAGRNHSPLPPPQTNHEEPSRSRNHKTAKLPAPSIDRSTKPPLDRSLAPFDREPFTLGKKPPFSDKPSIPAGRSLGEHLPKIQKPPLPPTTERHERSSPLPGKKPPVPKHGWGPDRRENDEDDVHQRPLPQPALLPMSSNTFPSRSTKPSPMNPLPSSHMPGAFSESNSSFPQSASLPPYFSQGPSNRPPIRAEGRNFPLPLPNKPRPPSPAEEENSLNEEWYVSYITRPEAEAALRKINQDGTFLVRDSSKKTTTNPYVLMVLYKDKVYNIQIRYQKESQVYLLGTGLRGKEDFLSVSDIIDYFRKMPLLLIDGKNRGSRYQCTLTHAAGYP
UniProt O75427: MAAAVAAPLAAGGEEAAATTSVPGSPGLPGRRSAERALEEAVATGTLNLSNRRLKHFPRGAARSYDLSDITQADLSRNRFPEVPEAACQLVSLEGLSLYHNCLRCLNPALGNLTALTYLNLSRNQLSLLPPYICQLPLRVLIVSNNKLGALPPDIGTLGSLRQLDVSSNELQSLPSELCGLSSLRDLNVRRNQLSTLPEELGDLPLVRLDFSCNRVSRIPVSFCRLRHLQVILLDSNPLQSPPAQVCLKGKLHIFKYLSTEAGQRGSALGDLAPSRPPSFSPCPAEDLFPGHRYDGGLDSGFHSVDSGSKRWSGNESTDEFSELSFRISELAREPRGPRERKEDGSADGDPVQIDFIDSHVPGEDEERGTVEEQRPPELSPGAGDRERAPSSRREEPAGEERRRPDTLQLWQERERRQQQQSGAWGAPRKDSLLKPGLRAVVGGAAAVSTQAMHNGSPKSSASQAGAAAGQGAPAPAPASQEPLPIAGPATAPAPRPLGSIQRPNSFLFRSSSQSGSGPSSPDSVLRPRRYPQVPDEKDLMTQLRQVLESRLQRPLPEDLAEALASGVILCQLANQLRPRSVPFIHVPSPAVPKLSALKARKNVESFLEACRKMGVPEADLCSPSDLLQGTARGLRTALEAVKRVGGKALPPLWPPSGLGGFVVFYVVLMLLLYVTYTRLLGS
UniProt O95214: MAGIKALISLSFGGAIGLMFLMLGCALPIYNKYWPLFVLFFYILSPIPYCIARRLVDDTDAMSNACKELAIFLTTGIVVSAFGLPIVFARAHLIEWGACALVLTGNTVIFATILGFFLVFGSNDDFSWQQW
UniProt Q3ZCW2: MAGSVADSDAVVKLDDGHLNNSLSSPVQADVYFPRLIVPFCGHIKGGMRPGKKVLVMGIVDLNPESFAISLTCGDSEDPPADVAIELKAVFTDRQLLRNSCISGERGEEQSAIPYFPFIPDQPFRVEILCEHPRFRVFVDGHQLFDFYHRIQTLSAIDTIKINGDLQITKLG
UniProt O75581: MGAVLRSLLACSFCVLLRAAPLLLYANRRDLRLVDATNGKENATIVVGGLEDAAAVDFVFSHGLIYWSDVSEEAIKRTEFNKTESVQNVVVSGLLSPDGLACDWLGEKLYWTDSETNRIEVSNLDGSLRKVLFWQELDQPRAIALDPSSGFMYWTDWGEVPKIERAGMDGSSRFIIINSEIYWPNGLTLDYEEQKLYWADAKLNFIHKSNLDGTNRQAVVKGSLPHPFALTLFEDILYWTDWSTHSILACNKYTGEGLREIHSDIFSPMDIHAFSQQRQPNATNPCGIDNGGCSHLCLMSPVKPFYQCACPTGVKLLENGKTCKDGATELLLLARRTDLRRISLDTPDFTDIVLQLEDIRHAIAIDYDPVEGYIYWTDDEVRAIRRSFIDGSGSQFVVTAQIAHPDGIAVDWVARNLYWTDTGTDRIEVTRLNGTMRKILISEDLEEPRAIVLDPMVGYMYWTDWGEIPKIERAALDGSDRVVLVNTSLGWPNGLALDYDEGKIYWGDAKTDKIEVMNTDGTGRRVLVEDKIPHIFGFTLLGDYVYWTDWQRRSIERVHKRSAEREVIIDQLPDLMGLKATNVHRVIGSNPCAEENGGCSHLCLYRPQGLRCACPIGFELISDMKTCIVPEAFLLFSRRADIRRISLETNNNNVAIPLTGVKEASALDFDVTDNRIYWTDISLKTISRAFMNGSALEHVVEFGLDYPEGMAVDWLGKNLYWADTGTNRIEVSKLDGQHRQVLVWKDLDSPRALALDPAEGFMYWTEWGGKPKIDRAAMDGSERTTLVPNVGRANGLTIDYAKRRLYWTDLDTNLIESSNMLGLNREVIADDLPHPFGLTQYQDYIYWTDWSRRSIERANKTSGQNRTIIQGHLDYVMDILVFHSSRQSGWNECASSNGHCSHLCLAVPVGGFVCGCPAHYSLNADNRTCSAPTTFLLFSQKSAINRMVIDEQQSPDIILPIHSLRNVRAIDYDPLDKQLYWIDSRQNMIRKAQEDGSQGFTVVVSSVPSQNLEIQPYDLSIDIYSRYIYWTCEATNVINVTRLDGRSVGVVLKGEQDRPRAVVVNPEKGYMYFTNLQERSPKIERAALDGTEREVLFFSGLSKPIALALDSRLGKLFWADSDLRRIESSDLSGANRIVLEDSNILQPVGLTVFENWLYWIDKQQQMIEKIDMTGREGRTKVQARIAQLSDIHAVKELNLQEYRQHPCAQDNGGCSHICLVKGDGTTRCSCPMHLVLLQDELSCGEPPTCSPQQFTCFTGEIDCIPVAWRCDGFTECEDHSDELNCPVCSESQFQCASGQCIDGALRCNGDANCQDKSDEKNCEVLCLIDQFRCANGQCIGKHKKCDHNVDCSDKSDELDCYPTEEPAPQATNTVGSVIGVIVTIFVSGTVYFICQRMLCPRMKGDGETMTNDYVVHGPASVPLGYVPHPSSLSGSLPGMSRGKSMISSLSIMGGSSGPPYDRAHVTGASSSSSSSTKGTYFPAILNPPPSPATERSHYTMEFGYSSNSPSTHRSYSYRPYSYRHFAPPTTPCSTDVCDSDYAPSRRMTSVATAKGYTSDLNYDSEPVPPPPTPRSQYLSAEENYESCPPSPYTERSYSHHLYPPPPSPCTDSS
UniProt Q9GZZ8: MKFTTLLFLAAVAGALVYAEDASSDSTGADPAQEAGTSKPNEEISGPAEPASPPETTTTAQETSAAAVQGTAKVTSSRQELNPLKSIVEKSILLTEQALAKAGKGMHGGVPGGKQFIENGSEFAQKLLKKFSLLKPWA
UniProt Q86VI4: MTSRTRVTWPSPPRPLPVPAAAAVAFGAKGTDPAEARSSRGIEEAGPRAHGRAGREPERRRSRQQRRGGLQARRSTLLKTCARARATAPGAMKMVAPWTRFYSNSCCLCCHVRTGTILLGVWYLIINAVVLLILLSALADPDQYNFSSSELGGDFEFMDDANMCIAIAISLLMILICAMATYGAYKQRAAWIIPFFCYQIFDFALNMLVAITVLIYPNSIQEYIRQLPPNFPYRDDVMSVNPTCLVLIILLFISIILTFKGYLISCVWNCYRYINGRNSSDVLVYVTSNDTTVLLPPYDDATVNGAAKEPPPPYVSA
UniProt Q9BT23: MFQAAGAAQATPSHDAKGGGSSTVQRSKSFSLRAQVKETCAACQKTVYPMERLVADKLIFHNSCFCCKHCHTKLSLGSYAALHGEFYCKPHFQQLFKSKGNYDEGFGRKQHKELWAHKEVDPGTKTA
UniProt P07864: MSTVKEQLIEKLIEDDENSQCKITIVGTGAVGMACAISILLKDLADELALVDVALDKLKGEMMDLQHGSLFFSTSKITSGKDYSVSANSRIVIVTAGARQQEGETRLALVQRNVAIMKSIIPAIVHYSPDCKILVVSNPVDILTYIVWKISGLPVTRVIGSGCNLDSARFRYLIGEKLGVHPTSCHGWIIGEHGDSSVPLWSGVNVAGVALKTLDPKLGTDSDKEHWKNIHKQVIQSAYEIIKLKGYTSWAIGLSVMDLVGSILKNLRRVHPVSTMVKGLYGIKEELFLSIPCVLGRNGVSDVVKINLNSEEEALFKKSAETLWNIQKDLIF
UniProt P11047: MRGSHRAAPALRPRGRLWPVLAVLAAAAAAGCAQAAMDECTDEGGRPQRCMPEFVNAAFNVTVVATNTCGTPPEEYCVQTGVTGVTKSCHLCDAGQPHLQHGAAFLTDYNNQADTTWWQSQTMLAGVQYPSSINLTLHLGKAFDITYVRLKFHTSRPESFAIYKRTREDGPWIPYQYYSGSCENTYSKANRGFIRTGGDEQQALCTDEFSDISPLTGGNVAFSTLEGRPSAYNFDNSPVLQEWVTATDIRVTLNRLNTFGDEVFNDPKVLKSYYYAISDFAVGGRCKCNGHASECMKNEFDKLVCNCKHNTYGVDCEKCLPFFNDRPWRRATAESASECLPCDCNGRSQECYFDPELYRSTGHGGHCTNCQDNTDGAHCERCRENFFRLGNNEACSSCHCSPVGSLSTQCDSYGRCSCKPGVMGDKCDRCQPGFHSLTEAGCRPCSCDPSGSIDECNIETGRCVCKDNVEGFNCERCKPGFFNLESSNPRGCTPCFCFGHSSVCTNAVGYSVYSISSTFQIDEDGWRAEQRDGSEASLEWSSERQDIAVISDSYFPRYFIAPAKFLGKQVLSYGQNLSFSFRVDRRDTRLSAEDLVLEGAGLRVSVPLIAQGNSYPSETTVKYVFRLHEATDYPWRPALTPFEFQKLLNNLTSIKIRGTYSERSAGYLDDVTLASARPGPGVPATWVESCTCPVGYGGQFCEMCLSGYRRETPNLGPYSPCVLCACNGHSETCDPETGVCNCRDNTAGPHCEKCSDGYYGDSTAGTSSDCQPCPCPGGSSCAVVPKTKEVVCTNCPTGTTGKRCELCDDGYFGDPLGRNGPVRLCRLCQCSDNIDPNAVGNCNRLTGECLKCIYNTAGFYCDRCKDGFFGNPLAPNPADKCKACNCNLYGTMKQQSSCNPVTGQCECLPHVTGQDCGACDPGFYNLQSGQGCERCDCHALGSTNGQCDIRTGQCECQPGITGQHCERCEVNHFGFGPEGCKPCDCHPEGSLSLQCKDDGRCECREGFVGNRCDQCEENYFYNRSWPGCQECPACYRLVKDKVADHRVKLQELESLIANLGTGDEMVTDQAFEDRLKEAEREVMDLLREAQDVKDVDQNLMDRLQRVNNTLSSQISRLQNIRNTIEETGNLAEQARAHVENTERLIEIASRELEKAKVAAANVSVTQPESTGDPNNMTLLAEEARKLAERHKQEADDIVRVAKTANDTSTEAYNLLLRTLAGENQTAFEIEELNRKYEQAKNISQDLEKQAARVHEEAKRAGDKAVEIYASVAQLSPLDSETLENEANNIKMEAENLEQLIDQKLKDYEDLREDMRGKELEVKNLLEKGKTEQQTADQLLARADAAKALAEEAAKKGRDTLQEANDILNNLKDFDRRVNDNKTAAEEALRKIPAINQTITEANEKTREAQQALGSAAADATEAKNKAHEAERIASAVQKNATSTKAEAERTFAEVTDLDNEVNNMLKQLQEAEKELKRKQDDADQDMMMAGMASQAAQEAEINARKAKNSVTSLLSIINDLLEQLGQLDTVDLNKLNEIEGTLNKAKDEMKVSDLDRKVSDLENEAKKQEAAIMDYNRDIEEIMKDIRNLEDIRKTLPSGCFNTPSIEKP
UniProt Q52LA3: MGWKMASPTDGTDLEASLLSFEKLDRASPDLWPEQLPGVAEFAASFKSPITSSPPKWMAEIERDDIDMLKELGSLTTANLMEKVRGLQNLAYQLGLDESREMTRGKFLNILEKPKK
UniProt Q9H9Z2: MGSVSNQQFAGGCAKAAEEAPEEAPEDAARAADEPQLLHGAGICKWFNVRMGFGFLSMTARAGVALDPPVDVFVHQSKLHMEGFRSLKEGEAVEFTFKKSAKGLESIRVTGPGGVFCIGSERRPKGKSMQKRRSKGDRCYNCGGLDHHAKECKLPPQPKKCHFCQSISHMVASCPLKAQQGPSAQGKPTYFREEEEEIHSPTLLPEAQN

Assays:
Test in all cases: log2 fold change, soluble protein after heating vs DMSO (PISA); higher = thermal stabilisation; K562 cells, 10 uM, 30 min; active = over 0.2 and 3.5 SD of the protein, either way, in both replicates (recomputed)
[1] = compound: COC1=CC=C(C=C1)CN2C=CC3=C2C=C(C=C3)C(=O)NO
Procedure, shortened: (§1)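 Aliquots of K562 cells (2×10^6 cells/mL) treated with 10 μM compound for 30 min were heated for 3 min over 48°C-58°C. After pooling and extraction in PBS with 0.5% NP-40 at 4°C, soluble protein from a 21,000xg, 90 min spin was quantified by TMTpro 16plex LC-MS/MS with channel sums equalised. Thermal stability is expressed against control samples, from duplicates, as a log2 fold change.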

filanesib = compound: CON(C)C(=O)N1N=C(c2cc(F)ccc2F)S[C@@]1(CCCN)c1ccccc1 [filanesib]
Procedure, shortened: as §1

zotarolimus = compound: CO[C@H]1C[C@@H]2CC[C@@H](C)[C@@](O)(O2)C(=O)C(=O)N2CCCC[C@H]2C(=O)O[C@H]([C@H](C)C[C@@H]2CC[C@H](n3cnnn3)[C@H](OC)C2)CC(=O)[C@H](C)/C=C(\C)[C@@H](O)[C@@H](OC)C(=O)[C@H](C)C[C@H](C)/C=C/C=C/C=C/1C [zotarolimus]
Procedure, shortened: as §1

idasanutlin = compound: COc1cc(C(=O)O)ccc1NC(=O)[C@@H]1N[C@@H](CC(C)(C)C)[C@](C#N)(c2ccc(Cl)cc2F)[C@H]1c1cccc(Cl)c1F [idasanutlin]
Procedure, shortened: as §1

gefitinib = compound: COc1cc2ncnc(Nc3ccc(F)c(Cl)c3)c2cc1OCCCN1CCOCC1 [gefitinib]
Procedure, shortened: as §1

pictilisib = compound: CS(=O)(=O)N1CCN(Cc2cc3nc(-c4cccc5[nH]ncc45)nc(N4CCOCC4)c3s2)CC1 [pictilisib]
Procedure, shortened: as §1

alisertib = compound: COc1cc(Nc2ncc3c(n2)-c2ccc(Cl)cc2C(c2c(F)cccc2OC)=NC3)ccc1C(=O)O [alisertib]
Procedure, shortened: as §1

[2] = compound: COc1cccc2cc(-c3nc([C@H]4CC[C@H](C(=O)O)CC4)n4ncnc(N)c34)[nH]c12
Procedure, shortened: as §1

[3] = compound: COc1cc2nc(-c3cc(F)ccc3O)nc(N[C@@H]3CNC[C@H]3C(C)(C)O)c2cc1OC
Procedure, shortened: as §1

lapatinib = compound: CS(=O)(=O)CCNCc1ccc(-c2ccc3ncnc(Nc4ccc(OCc5cccc(F)c5)c(Cl)c4)c3c2)o1 [lapatinib]
Procedure, shortened: as §1

Measured: log2 fold change

LANCL3 (UniProt Q6ZV70)
inactive: [1] -0.009 | filanesib 0.127 | zotarolimus 0.047 | idasanutlin -0.047 | gefitinib 0.044

LCP2 (UniProt Q13094)
inactive: [1] -0.058 | filanesib 0.014 | idasanutlin 0.074 | pictilisib 0.07

LPP (UniProt Q93052)
inactive: [1] -0.394 | filanesib -0.623 | gefitinib 0.247

LRCH4 (UniProt O75427)
inactive: [1] -0.106 | filanesib 0.302 | pictilisib 0.254

LGALS8 isoform 2 (UniProt O00214)
inactive: [1] 0.202 | filanesib 0.264 | zotarolimus 0.053 | idasanutlin 0.182 | alisertib -0.021 | [2] -0.278 | pictilisib -0.183

LEPROTL1 isoform 2 (UniProt O95214)
inactive: [1] -0.109 | zotarolimus -0.064 | idasanutlin -0.127 | alisertib 0 | [3] -0.041 | gefitinib -0.092 | [2] -0.184 | lapatinib -0.153

LGALSL (UniProt Q3ZCW2)
inactive: [1] -0.227 | alisertib 1.12 | [2] -0.085

LRP6 (UniProt O75581)
inactive: [1] -0.08 | filanesib -0.003 | zotarolimus -0.161 | idasanutlin -0.085 | [3] 0.067 | lapatinib 0.049 | pictilisib 0.123

LACRT (UniProt Q9GZZ8)
inactive: filanesib 0.535 | zotarolimus -0.156 | idasanutlin 0.152 | alisertib -0.041 | gefitinib 0.538 | [2] -0.128

LRRC41 (UniProt Q15345)
inactive: filanesib 0.003 | [3] -0.069 | lapatinib 0.055

LAPTM4B (UniProt Q86VI4)
inactive: filanesib 0.186 | alisertib -0.027 | [2] 0.007 | pictilisib 0.017

LIMD2 (UniProt Q9BT23)
inactive: filanesib 0.003 | zotarolimus 0.074 | idasanutlin -0.022 | [3] 0.105 | lapatinib 0.087

LDHC (UniProt P07864)
inactive: filanesib 0.019 | gefitinib 0.062

LAMC1 (UniProt P11047)
inactive: pictilisib 0.24

Taken from the entries so far (two entries):
LAPTM4B (UniProt Q86VI4)
inactive: filanesib 0.186 | alisertib -0.027 | [2] 0.007 | pictilisib 0.017

LIMD2 (UniProt Q9BT23)
inactive: filanesib 0.003 | zotarolimus 0.074 | idasanutlin -0.022 | [3] 0.105 | lapatinib 0.087

Continued:

LIN52 (UniProt Q52LA3)
inactive: [2] 0
active: alisertib -0.924

LIN28A (UniProt Q9H9Z2)
inactive: filanesib -0.023 | zotarolimus -0.19 | pictilisib 0.162

LRRC42 (UniProt Q9Y546)
inactive: zotarolimus -0.072 | idasanutlin -0.064 | pictilisib 0.056

LARP1B, A0A3B3ISF0
inactive: filanesib 0.282 | [3] -0.074 | lapatinib 0.035 | pictilisib -0.171
